From patent US9403831B2, “Triazolopyrazine derivative and use thereof” (KOREA RESEARCH INSTITUTE OF CHEMICAL TECHNOLOGY, priority 2013, dated 2016)
Not every entry of the source has a single result; some have several. The other results are left out here. There may be further records. The records of an entry do not match, cause unknown; they may come from other doses, times, organisms or constructs than stated.

Test system: gastric cancer cell line Hs746T
Assay: Cancer cell proliferation inhibitory test (SRB or MTS assay, 72 hours)
Assay type: cell-based, human
Conditions: read-out: Hs746T IC50; cancer cell (Hs746T) proliferation inhibition, culturing with compound for 72 hours

CN1CC=C(c2cnc(N3CCO[C@H](Cn4nnc5ncc(-c6cccc(C#N)c6)nc54)C3)nc2)CC1 [Chemical formula 23]
IC50: ≤ 1 nM and 0.1 nM
